# Paper PMC11297042
# By UniProt entry, the sequences of proteins in these tests, tags left out.
# UniProt O60479: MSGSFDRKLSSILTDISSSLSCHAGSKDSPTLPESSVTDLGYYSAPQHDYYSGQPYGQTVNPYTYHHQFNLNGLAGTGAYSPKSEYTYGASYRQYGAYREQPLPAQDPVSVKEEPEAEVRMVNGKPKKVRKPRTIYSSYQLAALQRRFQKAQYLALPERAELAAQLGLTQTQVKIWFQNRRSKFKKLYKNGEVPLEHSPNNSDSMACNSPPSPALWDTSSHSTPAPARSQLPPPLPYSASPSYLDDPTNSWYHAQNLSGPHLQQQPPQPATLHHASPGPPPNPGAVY
# UniProt O15021: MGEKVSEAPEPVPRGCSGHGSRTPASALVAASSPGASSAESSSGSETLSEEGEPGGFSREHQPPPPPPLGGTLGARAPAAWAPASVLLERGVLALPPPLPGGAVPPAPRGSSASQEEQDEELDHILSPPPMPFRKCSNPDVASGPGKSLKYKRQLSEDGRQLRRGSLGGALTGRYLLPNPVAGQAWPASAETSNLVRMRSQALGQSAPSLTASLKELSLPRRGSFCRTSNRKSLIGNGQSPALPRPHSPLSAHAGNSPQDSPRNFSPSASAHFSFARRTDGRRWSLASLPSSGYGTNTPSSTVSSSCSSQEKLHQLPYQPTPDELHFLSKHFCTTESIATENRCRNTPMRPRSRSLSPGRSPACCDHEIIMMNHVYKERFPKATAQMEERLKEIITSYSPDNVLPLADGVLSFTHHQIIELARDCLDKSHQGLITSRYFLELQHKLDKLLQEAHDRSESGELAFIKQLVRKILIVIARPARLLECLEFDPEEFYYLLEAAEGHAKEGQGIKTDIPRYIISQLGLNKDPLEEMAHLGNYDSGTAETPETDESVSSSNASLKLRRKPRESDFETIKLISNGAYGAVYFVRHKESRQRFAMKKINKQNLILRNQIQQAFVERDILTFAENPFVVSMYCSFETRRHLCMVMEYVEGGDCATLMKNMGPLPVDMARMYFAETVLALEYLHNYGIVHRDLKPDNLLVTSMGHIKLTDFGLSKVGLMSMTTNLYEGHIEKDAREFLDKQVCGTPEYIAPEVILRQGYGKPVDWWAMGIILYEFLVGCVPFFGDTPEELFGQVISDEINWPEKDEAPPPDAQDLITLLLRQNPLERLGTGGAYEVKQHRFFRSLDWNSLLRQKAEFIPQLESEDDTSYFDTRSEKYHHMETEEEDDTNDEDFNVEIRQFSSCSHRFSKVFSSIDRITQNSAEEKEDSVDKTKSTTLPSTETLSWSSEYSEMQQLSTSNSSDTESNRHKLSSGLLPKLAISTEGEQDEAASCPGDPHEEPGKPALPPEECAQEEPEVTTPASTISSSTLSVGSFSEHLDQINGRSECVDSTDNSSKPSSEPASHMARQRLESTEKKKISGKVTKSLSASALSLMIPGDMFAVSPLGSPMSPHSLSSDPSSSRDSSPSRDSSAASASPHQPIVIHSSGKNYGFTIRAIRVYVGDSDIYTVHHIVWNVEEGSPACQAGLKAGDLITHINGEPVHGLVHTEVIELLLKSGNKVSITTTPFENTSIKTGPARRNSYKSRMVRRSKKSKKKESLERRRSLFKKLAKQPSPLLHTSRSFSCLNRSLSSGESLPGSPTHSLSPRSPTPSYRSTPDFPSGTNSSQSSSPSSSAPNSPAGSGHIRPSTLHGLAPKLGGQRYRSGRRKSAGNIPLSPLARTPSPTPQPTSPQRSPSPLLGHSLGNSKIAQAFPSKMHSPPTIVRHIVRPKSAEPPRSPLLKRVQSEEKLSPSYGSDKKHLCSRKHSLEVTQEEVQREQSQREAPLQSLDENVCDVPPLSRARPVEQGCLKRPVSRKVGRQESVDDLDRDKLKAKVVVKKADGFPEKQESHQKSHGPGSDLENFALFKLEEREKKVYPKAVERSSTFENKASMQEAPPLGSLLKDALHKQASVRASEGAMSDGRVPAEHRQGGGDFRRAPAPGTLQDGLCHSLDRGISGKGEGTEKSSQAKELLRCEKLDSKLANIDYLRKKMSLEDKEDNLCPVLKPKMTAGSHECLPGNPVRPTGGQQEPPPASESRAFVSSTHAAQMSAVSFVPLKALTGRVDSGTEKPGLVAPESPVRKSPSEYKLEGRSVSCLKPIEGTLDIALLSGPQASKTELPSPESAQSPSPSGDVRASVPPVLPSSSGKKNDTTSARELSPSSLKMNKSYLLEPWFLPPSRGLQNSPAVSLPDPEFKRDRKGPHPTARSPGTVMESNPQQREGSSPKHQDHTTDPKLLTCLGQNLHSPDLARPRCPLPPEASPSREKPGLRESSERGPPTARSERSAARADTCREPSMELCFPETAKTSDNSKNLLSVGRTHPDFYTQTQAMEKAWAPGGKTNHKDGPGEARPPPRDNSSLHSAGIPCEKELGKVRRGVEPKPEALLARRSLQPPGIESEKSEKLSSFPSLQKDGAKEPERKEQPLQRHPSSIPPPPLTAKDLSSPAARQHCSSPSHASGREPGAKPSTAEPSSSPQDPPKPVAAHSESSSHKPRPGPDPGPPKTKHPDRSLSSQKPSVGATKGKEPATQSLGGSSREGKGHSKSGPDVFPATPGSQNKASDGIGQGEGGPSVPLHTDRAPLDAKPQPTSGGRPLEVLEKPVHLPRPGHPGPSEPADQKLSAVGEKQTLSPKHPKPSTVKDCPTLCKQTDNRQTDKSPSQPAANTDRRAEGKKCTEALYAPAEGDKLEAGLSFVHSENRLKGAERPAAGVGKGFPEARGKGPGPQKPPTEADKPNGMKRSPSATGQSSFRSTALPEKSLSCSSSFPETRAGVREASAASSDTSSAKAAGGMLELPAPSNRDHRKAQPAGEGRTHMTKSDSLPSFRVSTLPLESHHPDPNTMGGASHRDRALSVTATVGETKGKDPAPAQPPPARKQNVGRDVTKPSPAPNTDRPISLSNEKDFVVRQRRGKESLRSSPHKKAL
# Results are given in words; binding and its absence hold for the method and conditions named. In cells and extracts the contact can be indirect. Some binding calls cover weakened binding; strength is not graded here.
# Biological target: Distal-Less Homeobox 3 (DLX3) (UniProt O60479)
# Assay: co-IP; HEK293T cells transiently transfected (HA-MAST4 PDZ or HA-MAST4-Full with DLX3; HA-MAST4 PDZ cotransfected with Dlx3 deletion mutants), immunoprecipitation and western blotting; details in the Supplementary Information
substance,measurement,value
HA-MAST4-Full (full-length MAST4) (from UniProt O15021 1-2623) (enzyme),binding,binds
